Measurements from paper PMC12661029.
These are yes or no findings as the source states them, for the method shown. Some entries that bind do so weakly or less than the wild type. Tags and fused reporters may be left off the sequences shown.

The chains behind the UniProt entries cited, without tags or fusion partners.
UniProt Q03330: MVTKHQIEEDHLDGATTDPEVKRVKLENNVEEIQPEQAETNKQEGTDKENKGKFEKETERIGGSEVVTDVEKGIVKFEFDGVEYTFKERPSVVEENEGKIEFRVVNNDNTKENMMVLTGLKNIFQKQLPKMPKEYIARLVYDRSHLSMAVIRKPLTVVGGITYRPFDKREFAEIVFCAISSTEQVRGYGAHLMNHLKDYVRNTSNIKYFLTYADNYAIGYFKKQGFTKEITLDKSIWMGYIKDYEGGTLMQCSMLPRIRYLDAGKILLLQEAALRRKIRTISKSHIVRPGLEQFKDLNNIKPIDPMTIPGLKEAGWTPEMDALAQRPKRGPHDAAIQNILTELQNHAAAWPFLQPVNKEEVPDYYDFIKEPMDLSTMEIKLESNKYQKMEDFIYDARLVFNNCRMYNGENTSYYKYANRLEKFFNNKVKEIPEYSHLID

T1: C-terminally hexahistidine tagged Ada3(187-702), subunit of the yeast Ada2/Ada3/Gcn5 complex (yeast) (UniProt P32494)
T1 sequence: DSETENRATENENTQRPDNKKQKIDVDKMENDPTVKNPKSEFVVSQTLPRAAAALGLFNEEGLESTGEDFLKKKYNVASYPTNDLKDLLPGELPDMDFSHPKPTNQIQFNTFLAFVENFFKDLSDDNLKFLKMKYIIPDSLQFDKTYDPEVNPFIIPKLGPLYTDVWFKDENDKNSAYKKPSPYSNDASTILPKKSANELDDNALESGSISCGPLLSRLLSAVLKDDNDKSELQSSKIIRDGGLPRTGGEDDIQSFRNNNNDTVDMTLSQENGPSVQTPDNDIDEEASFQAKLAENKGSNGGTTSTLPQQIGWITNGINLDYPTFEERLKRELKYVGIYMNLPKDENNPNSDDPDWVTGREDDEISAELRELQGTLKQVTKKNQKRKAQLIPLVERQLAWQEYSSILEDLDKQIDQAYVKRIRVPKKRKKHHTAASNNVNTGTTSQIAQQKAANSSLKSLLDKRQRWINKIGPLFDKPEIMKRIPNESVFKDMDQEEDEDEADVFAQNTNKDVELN

T2: hexahistidine-tagged Epl1(51-380), subunit of yeast Piccolo NuA4 (yeast) (UniProt P43572)
T2 sequence: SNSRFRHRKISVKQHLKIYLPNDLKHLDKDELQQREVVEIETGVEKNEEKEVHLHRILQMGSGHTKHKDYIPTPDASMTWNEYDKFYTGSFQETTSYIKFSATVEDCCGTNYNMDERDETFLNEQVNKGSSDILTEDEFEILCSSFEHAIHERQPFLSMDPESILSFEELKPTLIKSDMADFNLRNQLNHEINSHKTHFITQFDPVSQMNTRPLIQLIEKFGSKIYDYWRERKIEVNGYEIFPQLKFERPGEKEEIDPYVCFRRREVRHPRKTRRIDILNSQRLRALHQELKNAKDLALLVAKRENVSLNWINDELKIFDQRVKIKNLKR

B1: Esa1, subunit of yeast Piccolo NuA4 (enzyme, UniProt Q08649 1-445)
chain: MSHDGKEEPGIAKKINSVDDIIIKCQCWVQKNDEERLAEILSINTRKAPPKFYVHYVNYNKRLDEWITTDRINLDKEVLYPKLKATDEDNKKQKKKKATNTSETPQDSLQDGVDGFSRENTDVMDLDNLNVQGIKDENISHEDEIKKLRTSGSMTQNPHEVARVRNLNRIIMGKYEIEPWYFSPYPIELTDEDFIYIDDFTLQYFGSKKQYERYRKKCTLRHPPGNEIYRDDYVSFFEIDGRKQRTWCRNLCLLSKLFLDHKTLYYDVDPFLFYCMTRRDELGHHLVGYFSKEKESADGYNVACILTLPQYQRMGYGKLLIEFSYELSKKENKVGSPEKPLSDLGLLSYRAYWSDTLITLLVEHQKEITIDEISSMTSMTTTDILHTAKTLNILRYYKGQHIIFLNEDILDRYNRLKAKKRRTIDPNRLIWKPPVFTASQLRFAW
B2: Yng2(1-218), subunit of yeast Piccolo NuA4 (domain or fragment, UniProt P38806 1-218)
chain: MDPSLVLEQTIQDVSNLPSEFRYLLEEIGSNDLKLIEEKKKYEQKESQIHKFIRQQGSIPKHPQEDGLDKEIKESLLKCQSLQREKCVLANTALFLIARHLNKLEKNIALLEEDGVLAPVEEDGDMDSAAEASRESSVVSNSSVKKRRAASSSGSVPPTLKKKKTSRTSKLQNEIDVSSREKSVTPVSPSIEKKIARTKEFKNSRNGKGQNGSPENEE
B3: Ada2, subunit of the yeast Ada2/Ada3/Gcn5 complex (protein, UniProt Q02336 1-434)
chain: MSNKFHCDVCSADCTNRVRVSCAICPEYDLCVPCFSQGSYTGKHRPYHDYRIIETNSYPILCPDWGADEELQLIKGAQTLGLGNWQDIADHIGSRGKEEVKEHYLKYYLESKYYPIPDITQNIHVPQDEFLEQRRHRIESFRERPLEPPRKPMASVPSCHEVQGFMPGRLEFETEFENEAEGPVKDMVFEPDDQPLDIELKFAILDIYNSRLTTRAEKKRLLFENHLMDYRKLQAIDKKRSKEAKELYNRIKPFARVMTAQDFEEFSKDILEELHCRARIQQLQEWRSNGLTTLEAGLKYERDKQARISSFEKFGASTAASLSEGNSRYRSNSAHRSNAEYSQNYSENGGRKKNMTISDIQHAPDYALLSNDEQQLCIQLKILPKPYLVLKEVMFRELLKTGGNLSKSACRELLNIDPIKANRIYDFFQSQNWM

Key:
[1] = biological target: T1, C-terminally hexahistidine tagged Ada3(187-702), subunit of the yeast Ada2/Ada3/Gcn5 complex (yeast); assay: co-purification of coexpressed subunits; subunits coexpressed in E. coli BL21(DE3)pLysS (0.2 mM IPTG, 18 °C); complex captured from cell lysates by the C-terminal hexahistidine tag of Ada3(187-702) on Talon cobalt resin, then SourceQ ion-exchange chromatography
[2] = biological target: T2, hexahistidine-tagged Epl1(51-380), subunit of yeast Piccolo NuA4 (yeast); assay: co-purification of coexpressed subunits; subunits coexpressed in E. coli BL21(DE3)pLysS; complex captured by the hexahistidine tag of Epl1(51-380) on Talon cobalt resin, tag removed by TEV protease, then SourceQ anion-exchange chromatography

Molecule | binding [1] | binding [2]
Gcn5, subunit of the yeast Ada2/Ada3/Gcn5 complex (from UniProt Q03330 1-439) (enzyme) | binds | –
B1 | – | binds
B2 | – | binds
B3 | binds | –
